# Whole data set: some 33,000 sequences, median “E-score (-0.5 to 0.5)” near -8e-05, cut for the highest 2% near 0.23. Some of the results follow.
# Target: T1, Nrg2 (UniProt P38082)
# T1 sequence: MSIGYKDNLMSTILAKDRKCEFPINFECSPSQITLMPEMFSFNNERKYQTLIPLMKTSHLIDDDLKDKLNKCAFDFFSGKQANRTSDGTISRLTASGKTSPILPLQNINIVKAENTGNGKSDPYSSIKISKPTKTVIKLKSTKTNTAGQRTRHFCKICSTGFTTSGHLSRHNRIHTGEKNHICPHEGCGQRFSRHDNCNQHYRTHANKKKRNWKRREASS
# Test: PBM E-score (8-mer binding enrichment) (E-score (-0.5 to 0.5)); higher = stronger / more preferred TF binding
# Details: protein concentration: 100 nM; construct: GST-full length
# Outline: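 For each ungapped eight-base word taken together with its reverse complement, the Universal PBM Analysis Suite assigned an E-score. Binding data came from GST-tagged yeast transcription factors, applied at about 100-200 nM, on universal all-10-mer Agilent arrays made double-stranded by primer extension. Fluorescent anti-GST marked bound protein, and scans were normalised with masliner.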
row,Sequence,PBM E-score
1,CAACCCCG,-0.0267
2,AATTGTCT,0.077
3,CAATTTTA,0.125
4,AGGGTTGG,0.113
5,TACCGATA,-0.0936
6,CAGGCGCC,0.0447
7,AAGCGCAC,0.0375
8,GCCATAAC,-0.119
9,CTTGATAC,-0.0285
10,GGACACCA,-0.0284
11,GAGCACTC,-0.0321
12,ATGTTAAG,-0.0338
13,GGTCTGGA,-0.166
14,GAAATCCC,-0.0476
15,ACGAGCTA,-0.0222
16,CCTAAAAC,-0.0756
17,AGGATTAC,-0.0582
18,ATCGCCAC,0.224
19,CTTCCACA,0.0194
20,TACTCATA,-0.0491
21,AACGAAAC,0.117
22,GGGCCCTA,0.121
23,GGCGTCAC,-0.11
24,AAACTTTG,0.0472
25,AACATCTC,0.00055

row,Sequence,PBM E-score
1,GTAACCTA,0.0807
2,GCTCCAAC,-0.0456
3,ACGATCAG,0.0391
4,TGAAAGCA,0.195
5,CTGAGCCA,-0.0665
6,CCCAGAAG,-0.0851
7,AGCCTTGG,-0.0947
8,CAACCAGA,0.098
9,AACTAGTA,0.107
10,AGAATACT,0.0471
11,AAGTGTCC,0.00599
12,AACGAGTT,-0.139
13,CAACTAAA,0.126
14,ATGTATGA,0.144
15,GCACTCTA,0.0909
16,GCCATCAC,-0.0887
17,CCCATTGA,-0.0927
18,CGAGGCTA,-0.133
19,CAAGTAAC,0.0558
20,GCAAACAA,0.193
21,AGTCAAAC,-0.119
22,CAACGTTG,0.0615
23,GGCGTCCA,-0.12
24,AATTCGGA,0.152
25,CTCGTTAA,-0.0264

row,Sequence,PBM E-score
1,ACGTTTAA,0.162
2,ATCTTTGC,0.133
3,GCTTTACA,-0.0981
4,ACATAGGG,0.104
5,GATAAACA,0.0987
6,CGGATCAG,-0.0432
7,CAACATCG,0.11
8,ACGGGTAT,0.0644
9,GGCAACTA,0.194
10,AGCCAACG,-0.0609
11,CCTCGAGC,0.267
12,CAGAACAA,0.223
13,GACATATC,0.0718
14,AGCGAACT,0.0473
15,CCAGGGCA,0.175
16,CCCAGGAG,-0.225
17,ATAAGGTC,0.206
18,AGTACTTA,-0.0757
19,ACGGGATA,0.0878
20,GCAACTTA,0.1
21,CCCTCGAA,-0.126
22,CATAGCCG,-0.0321
23,ACCACTAC,-0.106
24,GTGCTAAA,-0.0358
25,TCGGAAAA,0.0848

# Two successive entries from above, quoted:
row,Sequence,PBM E-score
9,GGCAACTA,0.194
10,AGCCAACG,-0.0609

# (further entries)

row,Sequence,PBM E-score
1,AGTTCGAC,0.0275
2,CGTGCACA,-0.129
3,AATGACCA,0.154
4,ATGCATTC,0.1
5,GCTCCGCA,-0.0443
6,CCATACCG,0.00784
7,ATAGGGCA,-0.0243
8,AACAGCAT,0.0901
9,GACCGTCA,-0.0505
10,GCATGACC,-0.122
11,AGTACCTA,0.0211
12,TATGAATA,0.142
13,CACTTTCA,0.00493
14,GTAAACAC,-0.0176
15,AGTTAACA,0.166
16,GACGCCGA,0.15
17,GCCGGGAC,-0.264
18,CCACCAGC,-0.0443
19,AGGAGCGG,-0.236
20,AAGGCCAC,-0.0803
21,GGAGGTAC,-0.177
22,ATGCCACA,0.0993
23,CCCCATTC,0.0034
24,TAATCATA,0.0364
25,CGAGTTCC,0.0649

row,Sequence,PBM E-score
1,GAAACTGC,-0.0363
2,CGAATTAC,-0.0465
3,GCCCGCTA,-0.233
4,TGATGACA,0.0593
5,TCCCGCGA,0.066
6,GGCGAACC,0.086
7,CAAAACTC,0.0587
8,CGCCGTAG,0.0232
9,GAGATATC,0.282
10,ACTTATGC,0.0733
11,AGAGAGCA,-0.117
12,CGATACAA,0.162
13,TTAACAAA,0.094
14,ACCAATAC,0.167
15,GCGTCGCA,-0.0916
16,CACAAATA,0.164
17,CCGCGCGG,0.368
18,CGGGTCCA,0.0193
19,AGGGTGCG,0.0103
20,ACAATACA,0.148
21,ACTAGTGG,0.123
22,AGTCTGTC,-0.0879
23,AGGTGTGA,-0.0848
24,AGAGACGG,-0.0426
25,ATAGCAAC,0.0732

row,Sequence,PBM E-score
1,AAGAGGGA,-0.0301
2,TCGCCGCA,0.0795
3,CGACGCAA,0.0136
4,ACAGAGAG,-0.115
5,AGCGTCGG,-0.0319
6,TAATACCA,0.178
7,AACTTCTA,0.0496
8,CCAGTTTA,0.0365
9,ACGAGACC,0.043
10,CGCAGGCG,-0.167
11,CCTCGTAA,0.216
12,AGCGATAG,-0.11
13,CCATGTTA,0.0626
14,TAGGCGAA,0.00515
15,AGGACCTA,0.114
16,AACAACGA,-0.0427
17,CAGGGCGG,-0.0602
18,AATGACAA,0.189
19,AGGTCACA,-0.0671
20,GCGGTCAC,-0.0959
21,AACCGCTA,-0.0673
22,CGTCAAAC,-0.102
23,ATCAATAA,0.165
24,AAGTCGAA,-0.112
25,CGCTGCGC,-0.145

# In a second layout: entries from further up.
row | Sequence | PBM E-score
1 | AAGAGGGA | -0.0301
5 | AGCGTCGG | -0.0319
7 | AACTTCTA | 0.0496
13 | CCATGTTA | 0.0626
23 | ATCAATAA | 0.165

# Carrying on:

row,Sequence,PBM E-score
1,CTTTGAAA,0.0384
2,TCAGTCCA,-0.209
3,GCTGTCCA,0.109
4,AAGCTAGT,0.0156
5,AACCAATT,0.176
6,CCAGTTCC,0.00517
7,TATAGCCA,0.146
8,CGGCAGTC,-0.121
9,CGGCGGCA,-0.0877
10,TCCGGCCA,0.00685
11,ATCTCGCC,0.0341
12,CGCATCAC,-0.173
13,ATACGTTG,0.0382
14,TAATTTGA,0.00012
15,CATGTCGA,-0.00093
16,TACTTATA,-0.0612
17,AAAGATCT,-0.00505
18,AAACCTTT,-0.211
19,CGTCCTAC,-0.0299
20,TCCTTACA,-0.129
21,AGTTACAA,0.187
22,ATAGTAAT,0.234

# — the supplement of paper PMC3334620
